# Test results reported in article doi:10.1101/2022.06.09.495492.
# No constants are given. Whether binding was seen depends on the method and setting. A result given as binding can be weak or reduced; the word gives no strength. For some assays here: Binding seen in cells or lysates may run through a third protein.
# Key:
# [1] = target: HA-TvFACPα (T. vaginalis) (UniProt A2FE30); assay: co-IP
# [2] = target: GST-Tvactin (T. vaginalis); assay: pull-down
Substance,binding [1],binding [2]
"α-actin, endogenous (T. vaginalis) (from UniProt A0A8U0WPZ0)",binds,
His-TvFACPα (from UniProt A2FE30),,binds
